Measured values taken from paper PMC9856783, “Identification and Characterization of Aptamers Targeting Ovarian Cancer Biomarker Human Epididymis Protein 4 for the Application in Urine”.
Construct, isoform or probe ends are uncertain for at least one entry. Protein sequences can lack the tags named with them.

Molecular target: T1, Human epididymis protein 4 (HE4) (human) (UniProt Q14508)
T1 sequence (looked up, limits assumed): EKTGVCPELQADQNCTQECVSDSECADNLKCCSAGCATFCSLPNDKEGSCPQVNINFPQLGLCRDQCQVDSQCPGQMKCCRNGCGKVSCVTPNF
Assay: thermofluorimetric analysis (SYBR Gold)
Details: 1/125 artificial urine, 100 nM DNA, 0-800 nM HE4, 1/125 diluted artificial urine, 1x SYBR Gold, protein buffer, protein details: 6xHis, label: SYBR Gold dye (non-covalent), single-stranded DNA

| Sequence | Kd (commercial protein) [nM] | Kd (Discussion prints error as 3, commercial …) [nM] |
| --- | --- | --- |
| TCGCACATTCCGCTTCTACCCCCAACCAACGTCTATACTTCCCCAACCTCCGTAAGTCCGTGTGTGCGAA [AHE1] | 87 |  |
| TCGCACATTCCGCTTCTACCCATCAATCAGCATACCCACCATGTACGTCCCGTAAGTCCGTGTGTGCGAA [AHE3] |  | 127 |
